According to patent publication US20260345561A1, “METHODS AND COMPOSITIONS FOR USE IN TREATING AUTOSOMAL RECESSIVE POLYCYSTIC KIDNEY DISEASE (ARPKD)” (The General Hospital Corporation, priority 2022, published 2026):

System: PKHD1−/− organoids
Details: CDH1+ tubules, flow, R-Naproxen 20 μM, 7 days from day 16 (FIG. 5G, 15)
Text: Data in all bar charts and dot plots are expressed as mean±s.d. Statistical analysis was done in GraphPad Prism 9, and statistical significance was attributed to values of P<0.05 as determined by one-way ANOVA with Tukey's multiple-comparisons test unless otherwise noted. Different significance levels (P values) are indicated in each figure with asterisks: *P<0.05, **P<0.01, ***P<0.001, and ****P<0.0001. […] FIG. 1F; n=74 LTL+ tubules with flow, n=66 LTL+ tubules in static culture, n=191 LTL+ tubules treated with forskolin, n=32 CDH1+ tubules with flow, n=27 CDH1+ tubules in static culture, and n=104 CDH1+ tubules treated with forskolin. FIG. 2C; n=16 tubules transfected with siControl, n=17 tubules transfected with siKIF3A. 8 organoids transfected with siControl, and 7 organoids transfected with siKIF3A from 2 independent chips were analyzed in FIG. 2C.

In the case of `COc1ccc2cc([C@@H](C)C(=O)O)ccc2c1` [R-Naproxen], the “apical redistribution of actin fiber” value is reported as “ameliorated”.
